Laboratory results from the supplement of paper PMC6411743.
± gives the standard deviation of the averaged measurements. Only a part is listed here, and it is no random draw.

Tests used:
Test in all cases: NP40-soluble protein abundance relative to vehicle (solubility fold change) (ratio); higher = more soluble protein in presence of ATP
[1] = target: T1, A6NK28 and related entries (UniProt Q13163)
T1 sequence (whole entry): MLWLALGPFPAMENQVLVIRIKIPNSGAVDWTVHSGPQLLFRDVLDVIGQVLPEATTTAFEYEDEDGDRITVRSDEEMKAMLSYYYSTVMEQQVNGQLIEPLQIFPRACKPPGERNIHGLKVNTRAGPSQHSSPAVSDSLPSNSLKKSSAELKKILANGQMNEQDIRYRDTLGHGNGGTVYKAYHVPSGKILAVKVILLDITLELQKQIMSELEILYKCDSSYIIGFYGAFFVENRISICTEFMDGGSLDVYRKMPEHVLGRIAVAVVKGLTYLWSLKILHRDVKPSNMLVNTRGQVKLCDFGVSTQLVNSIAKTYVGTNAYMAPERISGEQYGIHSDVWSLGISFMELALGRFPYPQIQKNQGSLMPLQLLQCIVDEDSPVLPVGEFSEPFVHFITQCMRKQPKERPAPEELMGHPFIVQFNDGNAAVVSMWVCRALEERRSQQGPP
How it was run: (§1)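 Across three independent experiments, values are fold changes against the detergent-processed vehicle for each replicate, based on vsn-normalised intensities. The samples were Jurkat crude lysate treated with eight concentrations (0.1 to 10 mM) for 10 min at room temperature and then 3 min at 37 °C. Lysate was solubilised with 0.8% NP40 and benzonase, ultracentrifuged, and the supernatant analysed by TMT-labelled LC-MS/MS.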

[2] = target: T2, A8K878 and related entries (UniProt P55145)
T2 sequence (whole entry): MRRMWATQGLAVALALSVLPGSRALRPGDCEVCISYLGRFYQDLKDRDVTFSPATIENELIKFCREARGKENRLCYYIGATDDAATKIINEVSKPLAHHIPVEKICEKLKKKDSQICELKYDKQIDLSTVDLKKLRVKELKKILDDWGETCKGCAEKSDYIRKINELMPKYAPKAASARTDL
How it was run: as §1

[3] = target: T3, A9IYQ1 and related entries (UniProt Q9NTI5)
T3 sequence (whole entry): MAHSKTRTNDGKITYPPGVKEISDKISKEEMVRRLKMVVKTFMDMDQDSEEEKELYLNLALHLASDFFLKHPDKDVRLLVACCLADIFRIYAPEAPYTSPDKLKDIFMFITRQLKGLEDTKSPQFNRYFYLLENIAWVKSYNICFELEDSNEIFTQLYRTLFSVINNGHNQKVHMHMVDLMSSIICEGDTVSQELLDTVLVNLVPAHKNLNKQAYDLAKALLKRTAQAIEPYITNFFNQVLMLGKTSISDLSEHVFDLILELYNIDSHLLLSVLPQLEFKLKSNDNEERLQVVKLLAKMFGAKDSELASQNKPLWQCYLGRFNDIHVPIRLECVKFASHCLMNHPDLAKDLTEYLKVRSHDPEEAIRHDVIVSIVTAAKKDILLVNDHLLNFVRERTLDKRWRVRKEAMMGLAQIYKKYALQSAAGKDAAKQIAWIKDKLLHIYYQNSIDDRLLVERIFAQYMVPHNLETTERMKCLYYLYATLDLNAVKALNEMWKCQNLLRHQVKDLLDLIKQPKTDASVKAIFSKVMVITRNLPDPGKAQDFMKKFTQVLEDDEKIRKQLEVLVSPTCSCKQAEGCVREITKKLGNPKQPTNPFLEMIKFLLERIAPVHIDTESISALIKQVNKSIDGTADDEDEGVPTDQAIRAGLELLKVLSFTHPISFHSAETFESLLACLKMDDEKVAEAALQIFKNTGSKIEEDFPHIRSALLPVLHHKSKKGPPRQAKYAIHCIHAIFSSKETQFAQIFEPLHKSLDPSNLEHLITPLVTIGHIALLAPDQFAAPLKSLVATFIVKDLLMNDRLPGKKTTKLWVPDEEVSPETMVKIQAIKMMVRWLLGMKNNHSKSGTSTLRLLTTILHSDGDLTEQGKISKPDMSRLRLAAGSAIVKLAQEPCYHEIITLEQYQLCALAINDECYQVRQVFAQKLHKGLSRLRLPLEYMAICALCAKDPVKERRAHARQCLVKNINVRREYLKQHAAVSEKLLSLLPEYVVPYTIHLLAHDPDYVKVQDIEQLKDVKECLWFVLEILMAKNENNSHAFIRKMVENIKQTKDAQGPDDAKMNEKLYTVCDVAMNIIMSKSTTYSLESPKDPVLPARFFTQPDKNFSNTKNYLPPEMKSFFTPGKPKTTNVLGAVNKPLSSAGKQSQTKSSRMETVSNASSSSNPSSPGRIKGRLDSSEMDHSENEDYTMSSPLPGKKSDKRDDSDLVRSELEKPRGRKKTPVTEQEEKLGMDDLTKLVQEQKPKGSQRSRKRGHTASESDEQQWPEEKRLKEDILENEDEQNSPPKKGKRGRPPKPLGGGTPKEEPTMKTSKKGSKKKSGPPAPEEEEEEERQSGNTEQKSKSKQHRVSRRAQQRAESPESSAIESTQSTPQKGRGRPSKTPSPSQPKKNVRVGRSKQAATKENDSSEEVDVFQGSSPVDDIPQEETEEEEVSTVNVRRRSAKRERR
How it was run: as §1

[4] = target: T4, ARHGAP10 (UniProt A1A4S6)
T4 sequence (whole entry): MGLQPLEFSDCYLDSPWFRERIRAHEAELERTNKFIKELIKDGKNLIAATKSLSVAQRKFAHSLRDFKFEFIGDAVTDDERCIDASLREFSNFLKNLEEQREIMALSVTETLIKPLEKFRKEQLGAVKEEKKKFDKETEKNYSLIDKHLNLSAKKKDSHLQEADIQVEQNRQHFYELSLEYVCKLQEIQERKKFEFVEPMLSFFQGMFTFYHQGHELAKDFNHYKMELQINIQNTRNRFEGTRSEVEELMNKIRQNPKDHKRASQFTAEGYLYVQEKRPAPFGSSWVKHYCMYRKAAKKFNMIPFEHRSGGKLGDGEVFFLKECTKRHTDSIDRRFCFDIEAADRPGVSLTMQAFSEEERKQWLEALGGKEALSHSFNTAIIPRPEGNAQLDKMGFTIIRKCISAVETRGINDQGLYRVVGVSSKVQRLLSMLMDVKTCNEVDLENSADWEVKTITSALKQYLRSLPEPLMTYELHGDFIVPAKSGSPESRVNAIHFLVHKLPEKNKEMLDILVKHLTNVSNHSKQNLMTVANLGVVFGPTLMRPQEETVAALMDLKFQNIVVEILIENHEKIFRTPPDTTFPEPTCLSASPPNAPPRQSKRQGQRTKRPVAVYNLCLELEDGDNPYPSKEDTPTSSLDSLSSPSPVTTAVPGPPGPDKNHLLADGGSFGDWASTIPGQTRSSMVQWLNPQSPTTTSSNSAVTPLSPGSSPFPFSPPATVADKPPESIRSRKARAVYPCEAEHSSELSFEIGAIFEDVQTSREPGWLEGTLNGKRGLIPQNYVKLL
How it was run: as §1

[5] = target: T5, B0QYK0 and related entries (UniProt Q01844)
T5 sequence (whole entry): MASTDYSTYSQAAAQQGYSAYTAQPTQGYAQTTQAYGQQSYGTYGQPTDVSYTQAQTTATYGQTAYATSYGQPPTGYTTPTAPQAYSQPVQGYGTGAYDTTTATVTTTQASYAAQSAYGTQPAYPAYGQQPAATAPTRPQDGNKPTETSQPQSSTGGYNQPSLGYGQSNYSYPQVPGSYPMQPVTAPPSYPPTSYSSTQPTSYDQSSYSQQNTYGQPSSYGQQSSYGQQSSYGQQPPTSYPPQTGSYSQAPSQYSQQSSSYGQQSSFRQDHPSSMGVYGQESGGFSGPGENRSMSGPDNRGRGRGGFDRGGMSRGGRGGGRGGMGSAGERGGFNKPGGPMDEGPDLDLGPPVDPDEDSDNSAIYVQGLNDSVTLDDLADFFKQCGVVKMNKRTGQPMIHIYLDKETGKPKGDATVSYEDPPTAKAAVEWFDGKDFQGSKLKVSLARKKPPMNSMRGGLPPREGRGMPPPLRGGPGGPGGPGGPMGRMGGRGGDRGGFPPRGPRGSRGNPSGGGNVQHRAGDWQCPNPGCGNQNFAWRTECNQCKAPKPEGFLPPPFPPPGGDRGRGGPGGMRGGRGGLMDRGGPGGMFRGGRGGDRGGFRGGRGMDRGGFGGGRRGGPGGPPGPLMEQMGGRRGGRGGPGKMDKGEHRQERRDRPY
How it was run: as §1

[6] = target: T6, B4DH95 and related entries (UniProt Q6P9H5)
T6 sequence (whole entry): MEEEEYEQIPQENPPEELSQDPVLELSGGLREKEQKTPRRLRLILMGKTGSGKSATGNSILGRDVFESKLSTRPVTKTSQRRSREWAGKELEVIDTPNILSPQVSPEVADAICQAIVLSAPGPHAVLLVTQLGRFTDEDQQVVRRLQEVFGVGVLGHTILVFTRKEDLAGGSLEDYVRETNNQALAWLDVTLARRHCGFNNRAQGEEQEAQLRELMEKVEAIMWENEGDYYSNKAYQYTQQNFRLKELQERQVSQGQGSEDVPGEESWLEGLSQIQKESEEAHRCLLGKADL
How it was run: as §1

[7] = target: T7, B4DI03 and related entries (UniProt Q9BY50)
T7 sequence (whole entry): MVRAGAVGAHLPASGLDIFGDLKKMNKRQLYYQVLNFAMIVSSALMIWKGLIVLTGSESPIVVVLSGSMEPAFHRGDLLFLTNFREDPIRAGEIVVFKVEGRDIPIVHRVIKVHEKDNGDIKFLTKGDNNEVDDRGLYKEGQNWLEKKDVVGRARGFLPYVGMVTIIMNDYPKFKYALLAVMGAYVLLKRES
How it was run: as §1

[8] = target: T8, B5MDU6 and related entries (UniProt Q9H6V9)
T8 sequence (whole entry): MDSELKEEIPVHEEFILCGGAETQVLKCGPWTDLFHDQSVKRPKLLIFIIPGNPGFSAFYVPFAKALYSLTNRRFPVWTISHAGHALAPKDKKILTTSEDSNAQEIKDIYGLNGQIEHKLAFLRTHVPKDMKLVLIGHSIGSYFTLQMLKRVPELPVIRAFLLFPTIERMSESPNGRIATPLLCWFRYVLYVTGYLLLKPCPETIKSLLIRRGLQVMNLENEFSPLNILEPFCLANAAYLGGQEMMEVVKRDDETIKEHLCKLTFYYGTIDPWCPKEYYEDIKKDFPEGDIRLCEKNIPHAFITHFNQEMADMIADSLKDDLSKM
How it was run: as §1

Nc1ncnc2c1ncn2[C@@H]1O[C@H](COP(=O)(O)OP(=O)(O)OP(=O)(O)O)[C@@H](O)[C@H]1O [adenosine triphosphate] showed an NP40-soluble protein abundance ([1]; concentration: 1mM) of 1.08 ± 0.078, an NP40-soluble protein abundance ([1]; concentration: 2mM) of 1.11 ± 0.11 and an NP40-soluble protein abundance ([1]; concentration: 4mM) of 1.12 ± 0.077. It also gave an NP40-soluble protein abundance ([1]; concentration: 6mM) of 1.15 ± 0.23, an NP40-soluble protein abundance ([1]; concentration: 8mM) of 1.16 ± 0.12 and an NP40-soluble protein abundance ([1]; concentration: 10mM) of 1.2 ± 0.13. For the same molecule, the NP40-soluble protein abundance ([2]; concentration: 1mM) was 0.912 ± 0.085, the NP40-soluble protein abundance ([2]; concentration: 2mM) was 0.912 ± 0.041 and the NP40-soluble protein abundance ([2]; concentration: 4mM) was 0.897 ± 0.03. For the same molecule, the NP40-soluble protein abundance ([2]; concentration: 6mM) was 0.934 ± 0.054, the NP40-soluble protein abundance ([2]; concentration: 8mM) was 0.925 ± 0.029 and the NP40-soluble protein abundance ([2]; concentration: 10mM) was 0.82 ± 0.11. The NP40-soluble protein abundance ([3]; concentration: 1mM) was 1 ± 0.029, the NP40-soluble protein abundance ([3]; concentration: 2mM) was 1 ± 0.023 and the NP40-soluble protein abundance ([3]; concentration: 4mM) was 0.9802 ± 0.0048. For the same molecule, the NP40-soluble protein abundance ([3]; concentration: 6mM) was 0.996 ± 0.032, the NP40-soluble protein abundance ([3]; concentration: 8mM) was 1.01 ± 0.021 and the NP40-soluble protein abundance ([3]; concentration: 10mM) was 1.02 ± 0.031. For the same molecule, the NP40-soluble protein abundance ([4]; concentration: 1mM) was 1.028 ± 0.0035, the NP40-soluble protein abundance ([4]; concentration: 2mM) was 1.01 ± 0.044 and the NP40-soluble protein abundance ([4]; concentration: 4mM) was 1.1 ± 0.064. It also gave an NP40-soluble protein abundance ([4]; concentration: 6mM) of 1.07 ± 0.066, an NP40-soluble protein abundance ([4]; concentration: 8mM) of 1.06 ± 0.037 and an NP40-soluble protein abundance ([4]; concentration: 10mM) of 1.12 ± 0.026. The NP40-soluble protein abundance ([5]; concentration: 1mM) was 0.988 ± 0.036, the NP40-soluble protein abundance ([5]; concentration: 2mM) was 0.963 ± 0.025 and the NP40-soluble protein abundance ([5]; concentration: 4mM) was 0.929 ± 0.016. It also gave an NP40-soluble protein abundance ([5]; concentration: 6mM) of 1.03 ± 0.011, an NP40-soluble protein abundance ([5]; concentration: 8mM) of 0.965 ± 0.048 and an NP40-soluble protein abundance ([5]; concentration: 10mM) of 0.958 ± 0.038. It also gave an NP40-soluble protein abundance ([6]; concentration: 1mM) of 0.969 ± 0.052, an NP40-soluble protein abundance ([6]; concentration: 2mM) of 0.989 ± 0.026 and an NP40-soluble protein abundance ([6]; concentration: 4mM) of 0.979 ± 0.038. The NP40-soluble protein abundance ([6]; concentration: 6mM) was 0.949 ± 0.063, the NP40-soluble protein abundance ([6]; concentration: 8mM) was 0.973 ± 0.037 and the NP40-soluble protein abundance ([6]; concentration: 10mM) was 0.966 ± 0.025. It also gave an NP40-soluble protein abundance ([7]; concentration: 1mM) of 0.939 ± 0.08, an NP40-soluble protein abundance ([7]; concentration: 2mM) of 0.961 ± 0.014 and an NP40-soluble protein abundance ([7]; concentration: 4mM) of 0.912 ± 0.041. For the same molecule, the NP40-soluble protein abundance ([7]; concentration: 6mM) was 0.973 ± 0.054, the NP40-soluble protein abundance ([7]; concentration: 8mM) was 0.91 ± 0.07 and the NP40-soluble protein abundance ([7]; concentration: 10mM) was 0.928 ± 0.028. For the same molecule, the NP40-soluble protein abundance ([8]; concentration: 1mM) was 1.01 ± 0.073, the NP40-soluble protein abundance ([8]; concentration: 2mM) was 1.03 ± 0.11 and the NP40-soluble protein abundance ([8]; concentration: 4mM) was 0.968 ± 0.055. It also gave an NP40-soluble protein abundance ([8]; concentration: 6mM) of 0.96 ± 0.15, an NP40-soluble protein abundance ([8]; concentration: 8mM) of 1.02 ± 0.051 and an NP40-soluble protein abundance ([8]; concentration: 10mM) of 1.02 ± 0.091.
